Data from patent publication US11578125B2, “Anti-thyroid hormone (T4) recombinant antibody or antigen binding fragment” (Teknologian tutkimuskeskus VTT Oy, priority 2018, dated 2023).

Test system: anti-T4 Fab
Experiment: competitive ELISA, T4-BSA coated wells, 0.25 nM anti-T4 Fab pre-incubated with analyte
Format: binding, mouse
Details: for sensitivity of the competitive ELISA assay compared with L-thyroxine: LOD and LOQ
Protocol: Microtiter plate wells (Nunc, 436023) were coated with 100 μl of 4 μg/ml T4-BSA (Fitzgerald, 80-IT50) in PBS (15 mM phosphate, 150 mM NaCl, pH 7.3) for one hour at +37° C. with 600 rpm shaking. Wells were then washed three times with 300 μl PBS supplemented with 0.05% (v/v) Tween20 (Sigma-Aldrich, 93773-250G). Wells were blocked with 200 μl of Superblock® (Thermo Fisher Scientific, 37516) for 30 minutes in room temperature with 600 rpm shaking and washed as above. 100 μl of pre-incubated mixtures, containing 0.25 nM anti-T4 Fab and varying concentrations of L-thyroxine (T4) (Sigma-Aldrich, T2376) in PBSP (GE Healthcare, 28-9950-84) supplemented with 1% DMSO (v/v) (Sigma-Aldrich, D5879-100ML), were transferred to wells and incubated for 30 minutes with 600 rpm shaking in room temperature. Each sample had 12 replicates. Wells were washed as above and 100 μl of Goat anti-mouse Kappa-HRP (SoutherBiotech, 1050-05) diluted 1:1000 in Superblock was transferred to wells and incubation was carried out for 30 minutes at 600 rpm shaking in room temperature. Wells were washed as above and 100 μl of TMB Microwell Peroxidase Substrate System (2-C) (SeraCare, 50-76-00) was transferred to wells and enzymatic reaction was carried out for 30 minutes with 600 rpm shaking in room temperature. Reactions were stopped by transferring 100 μl of 1 M H3PO4 to the wells and measured at A450 using Varioskan (Thermo Fisher Scientific). Data was analysed with OriginPro 2017-software.
Assay was performed as in the previous paragraph (under title L-Thyroxine) except instead of T4 (Thyroxine) TIBPA (Tetraiodobisphenol A) was used.
Assay was performed as in the paragraph under title L-Thyroxine except instead of T4 (Thyroxine) TBBPA (Tetrabromobisphenol A) was used.
Assay was performed as in the paragraph under title L-Thyroxine except instead of T4 (Thyroxine) TCBPA (Tetrachlorobisphenol A) was used.
Assay was performed as in the paragraph under title L-Thyroxine except instead of T4 (Thyroxine) BPA (Bisphenol A) was used.

SMILES | Limit of detection (LOD) (FIG. 5) | Limit of quantification (LOQ) (FIG. 5) | sensitivity of the competitive ELISA assay compared with L-thyroxine
N[C@@H](Cc1cc(I)c(Oc2cc(I)c(O)c(I)c2)c(I)c1)C(=O)O [Compound T4, 3,5,3′,5′-tetraiodothyronine] | 84 pM | 314 pM | –
CC(C)(c1cc(Br)c(O)c(Br)c1)c1cc(Br)c(O)c(Br)c1 [TBBPA, Tetrabromobisphenol A] | – | – | more than two orders of magnitude less
CC(C)(c1cc(Cl)c(O)c(Cl)c1)c1cc(Cl)c(O)c(Cl)c1 [TCBPA, Tetrachlorobisphenol A] | – | – | three orders of magnitude less
CC(C)(c1cc(I)c(O)c(I)c1)c1cc(I)c(O)c(I)c1 [TIBPA, Tetraiodobisphenol A] | – | – | two orders of magnitude less
